Measured values: publication PMC10770396, “Dimerization of the 4Ig isoform of B7-H3 in tumor cells mediates enhanced proliferation and tumorigenic signaling” (Communications Biology, 2024)
Results are given in words; binding and its absence hold for the method and conditions named. In cells and extracts the contact can be indirect. Some results given as binding are weak or reduced against the parent protein; the word gives no strength. Sequences can lack the tags named with a protein.

Biological target: T1, 4Ig-B7-H3 split luciferase fusions (4Ig-B7-H3-nLuc and 4Ig-B7-H3-cLuc) (human), Q5ZPR3
T1 chain: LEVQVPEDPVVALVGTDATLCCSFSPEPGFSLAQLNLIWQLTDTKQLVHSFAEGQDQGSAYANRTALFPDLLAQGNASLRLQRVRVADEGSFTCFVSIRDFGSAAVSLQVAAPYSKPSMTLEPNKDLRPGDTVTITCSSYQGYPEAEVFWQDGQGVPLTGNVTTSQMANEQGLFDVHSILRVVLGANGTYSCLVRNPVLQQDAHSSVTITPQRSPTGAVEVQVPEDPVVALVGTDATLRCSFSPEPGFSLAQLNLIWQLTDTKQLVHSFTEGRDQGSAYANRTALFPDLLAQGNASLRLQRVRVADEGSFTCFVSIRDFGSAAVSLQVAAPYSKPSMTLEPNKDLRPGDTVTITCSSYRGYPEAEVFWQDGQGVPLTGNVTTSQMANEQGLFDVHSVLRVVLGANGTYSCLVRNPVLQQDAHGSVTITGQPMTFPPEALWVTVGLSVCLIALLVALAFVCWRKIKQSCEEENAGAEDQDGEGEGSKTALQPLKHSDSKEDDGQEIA
Assay: split reporter; ReBiL 2.0 split luciferase complementation in live U2OS cells, doxycycline-induced expression (3-48 h), D-luciferin, bioluminescence imaging (IVIS)
Conditions: remark: other sources report otherwise

B1: 4Ig-B7-H3 split luciferase fusions (4Ig-B7-H3-nLuc and 4Ig-B7-H3-cLuc), Q5ZPR3 29-534 (protein)
chain: T1 chain
binding: binds
